68 sequences from PubChem BioAssay AID1508600 (Functional Genomics Laboratory (NCATS/FGL), 2020) can be followed below.

Among all 53,000 sequences or so, about 3,700 (7%) were called active.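 Rule for the calls: active = gene knockdowns whose robust z-score for IL-1 alpha signal is at least 2 or at most -2, so actives lie on both sides; inactive = the rest.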 This is one part of the list.

The assay is described as follows: Components of the Cytosolic LPS Sensing Pathway: Gene Identification via Genome-wide siRNA Screen.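 Note: robust z of the log signal after scaling to non-targeting control siRNA wells of the plate.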 The conditions noted are these: RAW264.7 macrophages, IL-1a HTRF, actives lie on both sides, screened at 100 nM (by protocol), cells primed 5 h with Pam3CSK4 first. In a few lines:
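RAW264.7; siRNA 100 nM final, RNAiMAX, 48h 37 degrees C; Pam3CSK4 5 h; LipidA + TransIT-TKO 24 h; IL-1a HTRF; CellTiter-Glo viability; robust z vs negative-control median.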
For orientation: Time-resolved FRET reads energy transfer from a long-lived donor to a nearby acceptor.
For GGUGAUGACAAAGUACAAUTT against Stx3, the z-score was inactive: -0.248.

Take GGAAUUUUAGCGGAUGAUATT against Hltf: the z-score was inactive: -0.369.

Consider GGUCGAAUGAAAAUCGCCATT against Arhgap18, for which the z-score was inactive: -1.56.

GCACGUGGGCUAUUCCUACTT against Gria1: the z-score is inactive: -0.158.

Take GGACCUCAGAAUUUAUACUTT against Atf5: the z-score is inactive: 0.653.

CCAAUCAUUGAAGAUAGAGTT against Olfr811: the z-score was inactive: -0.176.

Consider “CCUCUAUCUAACCUUUUCUTT against 1810037I17Rik”, for which the z-score was inactive: -0.449.

As for GGAAGAUCUAUACUGUGGUTT against Wfdc18, the z-score was inactive: -0.65.

As for GCUCAGUACCGCACAACCATT against Dus3l, the z-score was inactive: -0.827.

For GGAAAAAAUCUGCAUCCGATT against Neu1, the z-score is inactive: -0.415.

Turning to GGUAUGAUGCCUAUUUAUUTT against Cln8, the z-score was inactive: -0.278.

With GGAGUAUUGUUUUAAACCCTT against Spata16, the z-score was inactive: 0.406.

CCCAAAACCCUGCUAUUCATT against Synj2bp: the z-score was inactive: 0.41.

With CGACUACCAGAGUCAUUCGTT against Lyzl6, the z-score is inactive: -1.13.

Turning to GGCCAAAGGACUGAUCAUCTT against Hectd4, the z-score is inactive: 0.104.

For the sequence GGACACAAGAGGCCAAUAATT against Ccdc63, the z-score is inactive: -0.18.

On to CCAGUGAACUUUAUGGACUTT against Rexo4, for which the z-score is inactive: -0.581.

Take GGAAGUCUGUCCAAAGCAUTT against Olfr190: the z-score is inactive: 0.248.

Regarding GGGAGAAGAAGAUACACCATT against Usp47, the z-score was inactive: -0.513.

As to GGCCUAUUAUACAGUGUAUTT against Anxa3, the z-score is inactive: -0.398.

Take GGGAGACAAACUGAUCUCUTT against Olfr324: the z-score is inactive: -1.95.

Take CUGGGUUACUUCACUAAGGTT against Psg26: the z-score is inactive: 0.885.

Regarding GGCCAGUACUUUGCUAAACTT against Hnrnpa1, the z-score is inactive: 1.28.

CCAGUAGCAGAUCAACUCATT against Mxd1: the z-score was inactive: -1.94.

For the sequence GGGCUUUUGGCUUCAUGACTT against Pcbd1, the z-score is inactive: -1.9.

Take GCCCAUAAACUGAUGGUGGTT against Tbc1d24: the z-score was inactive: -0.45.

For GGACACCUCGAGAUUCUCUTT against Actl11, the z-score is inactive: -0.186.

Turning to GCUUUUAACAUCGAGUAAUTT against Top2b, the z-score was inactive: -0.627.

Take GGCUUUUGAGCUGAUCUUGTT against Stmn2: the z-score was inactive: -1.44.

As to GGUCAUCAUGUCUCAUCAGTT against Olfr983, the z-score was inactive: 0.492.

Consider GCCACGAACAUGAUGUACATT against Slco3a1, for which the z-score is inactive: 0.229.

GGGAUUUCACUUCUUAUCATT against Olfr781: the z-score was inactive: -1.21.

Take GCCCGGUUUGAAGAACAUATT against Ndufb9: the z-score is inactive: 0.702.

Turning to GGGCACAAGAUCUAUAUAUTT against Anpep, the z-score is inactive: 0.517.

As to GGCUGAAGAGAUUGUCAAUTT against Aars, the z-score is inactive: -0.392.

For GCUAUGAAACAUGCCGGAGTT against Mrps21, the z-score is inactive: -0.0108.

Take GGUAAUCUCCAAAAAACCATT against Lilra6: the z-score is inactive: -0.863.

In the case of GGAAAAGUACACAAAGACCTT against Nkx2-1, the z-score was active: 2.16.

Turning to GGACUACCGAGGUUUAACCTT against Snx22, the z-score was inactive: -0.0645.

Turning to GCGCAUCAUCGAUUCUGCCTT against Sfn, the z-score was inactive: -1.21.

For the sequence GCUCGUUGACAAGAAGAGUTT against Bpifb5, the z-score was inactive: 1.02.

For GGCUUUAGCAGAUGAGCGATT against Sptbn4, the z-score is inactive: -0.0568.

Consider GGUGUAUUGCAUCAUUUCUTT against Tmbim1, for which the z-score was inactive: 0.981.

With GGCCAAAUUGCCAUCUGUUTT against Platr26, the z-score is inactive: -1.35.

With GGAAAUCAAUGCAUUGUCCTT against Fbn2, the z-score was inactive: -0.499.

Consider GGGAAGACACUGGCUUCAGTT against Lepr, for which the z-score was inactive: 0.957.

With GGCAGCUAGAAAUUCACUCTT against Sntb1, the z-score is inactive: -0.988.

In the case of GCCAUAUUUACUAAGCAGATT against Plcl2, the z-score is inactive: 0.123.

Regarding CCUCCACCUAGAAUGUGACTT against Ghrhr, the z-score is inactive: -0.582.

Turning to CGGAAUGUACACCUACUUUTT against Maneal, the z-score is inactive: 0.154.

Consider GGCAAAUUUAUUUCAGGAATT against Naa16, for which the z-score is inactive: -0.235.

As to GCCCUAUUCCCAACUAUUCTT against Nefl, the z-score was inactive: -0.481.

Turning to GCAAAAUAACUGGGACUUGTT against Faf1, the z-score is inactive: 1.41.

GGUGAACUCUUCACAUUUGTT against Fcer1a: the z-score is inactive: 1.55.

On to GGAAUGUUUUCAUGACUGUTT against Ttc1, for which the z-score is inactive: 0.778.

In the case of GGUCAUGGAUCAGAAAGAATT against Hnrnpd, the z-score was inactive: 0.297.

Regarding CCCACCCAUCUAAUUUUUGTT against Gm266, the z-score was inactive: 0.152.

Turning to GGCCGUAUAACAGGACUUUTT against Cltb, the z-score is inactive: -0.448.

For GGUCAUCUAUCGUGUGCUGTT against Lamb2, the z-score is inactive: -0.619.

With CGACUUGUAUCGUAUGGCUTT against Grm7, the z-score is inactive: -0.182.

With CCCAGGACUCAUGAUUACATT against Tas2r134, the z-score was inactive: -0.646.

Take GCACACCUUUAAUAGCUAATT against Gcm1: the z-score was inactive: -0.791.

On to “CCUACACCCAAUUAAGAGUTT against F830005K03Rik”, for which the z-score was inactive: -0.255.

With GCUUACAUUAAAGGAUAUGTT against Rab5c, the z-score is active: 2.17.

For CGAACGUGAUGAGUUAUGGTT against Vmn1r83, the z-score is active: -2.67.

GGAUGUGAUGACUCAUUUUTT against Zbtb8os: the z-score is inactive: 0.976.

For GGUCAUUGUUUAUGUCACATT against Sorcs3, the z-score was inactive: -0.496.

In the case of GCAGAUUAGAAGCUAGUAUTT against Rab27b, the z-score is inactive: 0.677.
